{
  "source": "patent US20170014477A1",
  "about": "“FREE RAPTOR REDUCES AGING- AND OBESITY-INDUCED FATTY LIVER” (The Trustees of Columbia University in the City of New York, priority 2015, published 2017)",
  "key": {"[1]": {"target": "KCTD17 (potassium channel tetramerization domain containing 17)", "assay": "co-immunoprecipitation, Western blot (FIG. 49B)"}, "Akt (mouse)": {"target": "Akt (mouse)", "assay": "anti-Akt IP from liver of young or adult Ad-GFP and Ad-Raptor mice, Western blot (FIG. 13I)"}},
  "note": "These are yes or no findings as the source states them, for the method shown. Binding calls can cover weak binding; strength is not graded here. For some assays here: In cells and extracts the contact can be indirect.",
  "data": [
    {"binder": "PH domain leucine-rich repeat protein phosphatase 2 (PHLPP2), endogenous (enzyme, mouse, UniProt Q8BXA7 1-1320, looked up) MKHNGSRTCLNRRSRFGSRERDWLREDVKRGCVYLYGADTTTATTTTSSSSSSSSSSDLHLVLCTVETPASEICAGEGRESLYLQLHGDLVRRLEPSERPLQIVYDYLSRLGFEDPVRIQEEATNPDLSCMIRFYGEKPCQMDHLDRILLSGIYNVRKGKTQLHKWAERLVVLCGTCLIVSSVKDCQTGKMHILPLVGGKIEEVKRRQHSLAFSSAGAQAQTYHVSFETLAEYQRWQRQASKVVSQRMSTVDLSCYSLEEVPEHLFYSQDITYLNLRHNFMQLERPGGLDTLHKFSQLKGLNLSHNKLGLFPVLLCEISTLTELSLSCNGFHDLPSQIGKLLNLQTLSLDGNGLTALPDELGNLRQLTSLGISFNDFRHIPEVLEKLTMLDKVAMAGNRLEVLNLGALTRMSQVKHVDLRMNHLKTVITENMEGNKHITHMDLRDNQLTDLDLSSLCSLEQLHCERNQLRELTLSGFSLRTLYASWNRLTAVNVYPVPSLLTSLELSQNLLECVPDWACEAKKLEILDISHNLLTEVPMRILSSLSLRKLMVGHNHIHVLPALVEHIPLEVLDIQHNTLSRLPDTLFSKALNLRYLNASANSLESLPSACAGEESLSVLQLLYLTSNLLTDQCIPVLVGHPHLRVLHLANNQLQTFPASKLNKLEQLEELNLSGNKLTAIPTTIANCKRLHTLVAHANNISIFPEILQLPQIQFVDLSCNDLTEILIPEALPATLQDLDLTGNTNLVLEHKTLDMFSHITALKIDQKPLPATDSAVTSTFWSHGLAEMAGQRNKLCVSALAMDNFAEGVGAVYGMFDGDRNEELPRLLQCTMADVLLEEVQHSTNDTVFMTNTFLVSHRKLGMAGQKLGSSALLCYIRPDTADPTSSFSLTVANVGMCQAVLCRGGKPVPLSKVFSLEHDPEEAQRVKDQKAIITEDNKVNGVTCCTRLLGCTYLYPWILPKPHIASTPLTIQDELLILGNKALWEHLSYLEAVNAVRHVQDPLAAAKKLCTLAQSYGCQDNVGAMVVYLNIGEEGCTCEMNGLTLPGPVGFASTAALKDTPKPTTPSSSSGIASEFSSEMSTSEVSSEVGSTASDEHNTVGLEASLLPRPERRCSLHPASSAGVFQRQPSCATFSSNQSDNGLDSDDDQPVEGVITNGSRVEVEVDIHCCRGREPESSPPLPKNSSNACSEERARGAGFGIRRQNSVNSGILLPANRDKMELQKSPSTSCLYGKKLSNGSIVPLEDSLNLIEVATEAPKRKTGYFAAPTQLEPEDQFVVPRDLEEEVKEQMKQHQEGRPEPEPRGEERTEPLEEFDTAL", "values": [
      {"measurement": "binding", "setting": "[1]", "result": "binds"},
      {"measurement": "binding", "setting": "Akt (mouse)", "result": "binds"}
    ]}
  ]
}
